This is an account of results in PMC4741301.

Chains of the proteins cited; added tags and fusions are not shown. Lines headed by an entry give the natural chain unless they say otherwise; changes in a name come on top.
UniProt Q9P2M4: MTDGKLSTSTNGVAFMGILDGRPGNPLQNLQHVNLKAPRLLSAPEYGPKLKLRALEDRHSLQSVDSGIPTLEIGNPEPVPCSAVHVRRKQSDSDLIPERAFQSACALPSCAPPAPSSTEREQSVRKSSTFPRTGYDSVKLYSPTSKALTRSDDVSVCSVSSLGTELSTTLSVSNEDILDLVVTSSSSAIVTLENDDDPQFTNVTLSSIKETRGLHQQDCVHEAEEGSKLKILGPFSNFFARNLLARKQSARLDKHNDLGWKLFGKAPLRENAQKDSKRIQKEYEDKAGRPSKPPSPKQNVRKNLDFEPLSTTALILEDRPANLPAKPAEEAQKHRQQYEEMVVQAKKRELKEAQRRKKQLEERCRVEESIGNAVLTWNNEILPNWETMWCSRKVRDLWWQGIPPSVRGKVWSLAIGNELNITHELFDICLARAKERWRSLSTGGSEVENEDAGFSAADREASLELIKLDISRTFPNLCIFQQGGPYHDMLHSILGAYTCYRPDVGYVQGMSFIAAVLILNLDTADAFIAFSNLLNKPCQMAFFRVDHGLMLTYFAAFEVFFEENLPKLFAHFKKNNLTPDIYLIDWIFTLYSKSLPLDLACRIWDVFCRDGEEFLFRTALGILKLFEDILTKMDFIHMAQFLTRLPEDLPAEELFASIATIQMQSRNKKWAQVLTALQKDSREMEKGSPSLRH
UniProt Q9Y296: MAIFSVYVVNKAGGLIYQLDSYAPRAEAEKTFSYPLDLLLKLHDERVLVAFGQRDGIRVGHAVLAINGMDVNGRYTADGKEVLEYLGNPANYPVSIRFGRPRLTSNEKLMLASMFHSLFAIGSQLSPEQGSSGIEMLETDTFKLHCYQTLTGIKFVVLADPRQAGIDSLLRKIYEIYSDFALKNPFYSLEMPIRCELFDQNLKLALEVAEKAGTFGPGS
UniProt Q8WVT3: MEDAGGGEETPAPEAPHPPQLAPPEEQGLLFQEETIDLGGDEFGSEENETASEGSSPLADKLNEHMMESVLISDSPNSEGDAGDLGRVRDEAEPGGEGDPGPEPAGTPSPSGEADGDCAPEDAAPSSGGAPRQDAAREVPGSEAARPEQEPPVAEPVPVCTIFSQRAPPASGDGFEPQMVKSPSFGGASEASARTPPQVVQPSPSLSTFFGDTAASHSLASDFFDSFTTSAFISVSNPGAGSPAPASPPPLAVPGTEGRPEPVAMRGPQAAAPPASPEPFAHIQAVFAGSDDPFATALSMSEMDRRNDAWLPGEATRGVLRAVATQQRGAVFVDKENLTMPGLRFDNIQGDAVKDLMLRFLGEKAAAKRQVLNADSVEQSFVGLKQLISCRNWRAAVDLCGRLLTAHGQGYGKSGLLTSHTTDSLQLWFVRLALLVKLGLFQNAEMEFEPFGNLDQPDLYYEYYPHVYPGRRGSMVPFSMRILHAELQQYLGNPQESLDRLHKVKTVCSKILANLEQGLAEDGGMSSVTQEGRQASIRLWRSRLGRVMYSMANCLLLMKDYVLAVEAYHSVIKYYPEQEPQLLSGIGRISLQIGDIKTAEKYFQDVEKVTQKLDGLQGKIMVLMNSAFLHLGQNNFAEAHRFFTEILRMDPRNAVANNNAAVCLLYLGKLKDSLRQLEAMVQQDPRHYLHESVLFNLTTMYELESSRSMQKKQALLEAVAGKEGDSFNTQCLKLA

No constants are given. Whether binding was seen depends on the method and setting. Binding seen in cells or lysates may run through a third protein.

The target of the experiment is GFP‐TBC1D14 224–669 (UniProt Q9P2M4). Nature of the experiment: co-IP; GFP‐Trap IP from lysates of cells (HEK293A) expressing GFP or GFP fusions; immunoblot for endogenous partners. Background: Immunoblotting shows a protein as a band on a membrane.

As for TRAPPC4 (from UniProt Q9Y296 1-219), the binding result is “no binding”.

“TRAPPC12/TTC15 (from UniProt Q8WVT3 1-735)”: the binding result is on record as “no binding”.
